The values that follow come from PubChem BioAssay AID1347423 (Functional Genomics Laboratory (NCATS/FGL), 2020).

Screen size: about 52,000 sequences; about 210 (0.4%) were called active.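 How the source made its calls: active means gene whose silencing raises cell survival under the drug, median off-target-corrected z-score across its silencing RNAs 2 or more; inactive means the rest.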 The list shows a part of the results.

The test in a line: Resistance to Poly (ADP-Ribose) Polymerase inhibitor: Gene Identification via Genome-wide siRNA Screen. Conditions: mouse BRCA2 R2336H ES cells, olaparib, CellTiter-Glo viability; hits give high values. The essentials: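 Mouse BRCA2 R2336H ES cells were reverse-transfected with siRNA (20 nM final), treated at 48 h with 500 nM olaparib, and read by CellTiter-Glo after 72 h. Scores: MAD-based z per siRNA, median per gene, seed off-target correction.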
Take “GGCAUACCUGGAGAAGUGUTT against 2600010E01Rik”: the z-score was inactive: -0.754.
As for GGGCAUGCGGAUCUUCUUATT against Sbp, the figure is inactive: 0.235; as for GGAACACAGAGAAUGGCUCTT against Rnf126, inactive: 0.307.
As for GGGAUCCCGCAAAAUCAGATT against Osm, the z-score is inactive: 0.325.
Turning to “GGGACUCGUGCAACAUUAUTT against 1700001D09Rik”, the z-score is inactive: -1.48.
As for “GGAUGAAAUGAACCUAGAGTT against G431001E03Rik”, the z-score was inactive: -0.722.
As for “GGAAAGUACCCUAGGAGUUTT against 4921509C19Rik”, the figure is inactive: -2.35; as for GGAUUGCUUCACCACAUGUTT against Fes, inactive: 0.279; as for GGGCAUACAUGAUCCUCCUTT against Gpr39, inactive: -0.839.
The value for “GGAAAUGACCAAAGAGGCUTT against G630009D10Rik” was inactive: -0.339.
As for “GCUCUCUACGAUGAGGUCATT against 2500002K03Rik”, the figure is inactive: -1.45; as for GGCAUAGGAAACACCAAGATT against Xdh, inactive: -0.732; as for GGAGUGUUUCCUGUCUCCUTT against Rad54l, inactive: 0.3.
Regarding CGAACUUCUUAAUAAACAGTT against Slc7a2, the z-score was inactive: 0.256.
On to GGAAAACUCUCUGCAUUAUTT against Stx7, for which the z-score is inactive: 0.166.
With GGCCCUAGCACUUUUUGUCTT against Ush2a, the z-score was inactive: 0.237.
As for CCUUAGCUUACCUAGUGGUTT against Tssc4, the figure is inactive: 1.3.
The value for “GGUCGGUUCUCUUCACUGATT against 1700025G04Rik” was inactive: 0.64; that for GGCAUGAGAACUAGUCUGCTT against Duox2 was inactive: -0.792; that for “GGAGUUUUUACAGUGCUUUTT against B830045N13Rik” was inactive: 1.89.
The value for CCACAACCCUUGAGGAUGUTT against Samd11 was inactive: 1.81.
Regarding “GGUUUGAGAGUGGUAAUCUTT against 6530406M24Rik”, the z-score is inactive: -1.21.
As for GCGUGGUGAACAACUAUGCTT against AB041549, the figure is inactive: 0.247; as for GGUUAUUUGGUCCUCGUAGTT against Ccs, inactive: -1.79.
The value for GGUAUAAACUAUUUGUACCTT against Gnb4 was inactive: -0.379; that for “GGUAUAGAUGACCAGAAGATT against 0610040D20Rik” was inactive: -2.5; that for CCUUCCUACAACAAGUGUGTT against Galnt1 was inactive: -0.12.
As to GCCACUAUUACUCUGAUACTT against Birc1c, the z-score was inactive: 0.655.
As for GGACAUUCAACUGUACCACTT against Sepm, the z-score is inactive: 0.439.
On to GGAAGCAGAUGCAGCUGUUTT against Cml5, for which the z-score was inactive: -0.755.
The value for “CGCAGAAAGUUGUUAACCCTT against 1110030H18Rik” was inactive: -0.0265; that for GGAUGGUUGUGAGGAUUACTT against Paip1 was inactive: 1.85.
On to GGAUGCUAGACAAGAAUCCTT against Camkk1, for which the z-score is inactive: 0.115.
As for GGUGCAAGUUUUUCAGUCUTT against Gats, the figure is inactive: -1.91; as for GGCAAAAUAACUGACUUCATT against Rps4x, inactive: -2.97; as for GCAACUCUUAUUUGGAUGCTT against Dbpht1, inactive: -0.34.
As for GCCAGUAACCAGAAAAUUGTT against Sycp3, the figure is inactive: -0.187; as for CCAAGAUUAACCAUAACACTT against Mrpl50, inactive: -0.0482.
As for CCAAUCUGCACCCUAUGUCTT against Cs, the figure is inactive: -0.558; as for GGCUAUAAAAAGAAGUACCTT against Pdgfrb, inactive: -0.494; as for GGACAAAGAGGAAUGGAUATT against Tank, inactive: -0.113.
On to “GCCCAUUAUUGCUGAGACUTT against 1700063I17Rik”, for which the z-score is inactive: -0.413.
Take “GGCAUUUAGCCAAAAGUUCTT against 1700025J14Rik”: the z-score was inactive: -0.0771.
As for “GGAGAUAUGGCCAUCACUCTT against 4930584N22Rik”, the z-score was inactive: 0.199.
The value for “GGAAGUGCAAGGUUUACAATT against 9930104E21Rik” was inactive: -1.19; that for GCUUACCAAAGGCUAUUUGTT against Anxa13 was inactive: 0.274; that for CCGCUCACAACUUCUACAGTT against Lmo6 was inactive: -1.14.
As to “GGAGAGGCUUUUCAUUGAUTT against 4930457P18Rik”, the z-score was inactive: 0.0958.
As for GGUCUUAACUGUGAACAACTT against Dner, the figure is inactive: -0.16; as for GGGUCUCAGCAGUGCAAACTT against Txnip, inactive: 0.0441.
On to GGUCAAACAGGAAGACAGATT against Ubc, for which the z-score is inactive: -1.46.
Regarding GCCUUUUGAUGCUUCCUCUTT against BC017158, the z-score was inactive: -2.36.
As for “GGACAAAAGCAAAGAAAAGTT against 1300003K24Rik”, the figure is inactive: 0.583.
The value for GGAGAAACUAUGAUCUUUATT against Mmp13 was inactive: 0.911.
The value for GGACAAGAAAAAAAACCUGTT against Mrvi1 was inactive: 0.235; that for GGCAACAUCAAAGAAAGGATT against Rad51l1 was inactive: -0.89.
Consider “GGGAUAAAAACCAUGGUUUTT against E330017N17”, for which the z-score is inactive: 0.00847.
In the case of GGAAAAACAUUCAAGACUCTT against Solt, the z-score is inactive: -0.194.
As for GGACGUGGUGAAGUUUUAUTT against Folr2, the figure is inactive: 0.139.
As for GGAAAAAAAGGACAUUUCATT against Osmr, the figure is inactive: -1.41; as for GGGUGGUGGCAUUAAACUUTT against Stk36, inactive: -2.19.
As to CCAGCUAGUGAUGUCAAAATT against Bri3bp, the z-score is inactive: 2.11.
Take GGUUAUUGGCACUUUUAGATT against Ect2: the z-score was inactive: 0.319.
Regarding GGGUGCAUAUGUUUGAAGCTT against Copb2, the z-score was inactive: 0.319.
For UGAGGAGAGUUUCCGAGUGTT against H2-Q6, the z-score is inactive: -1.74.
The value for GGUCGUGUACAAGUACAUATT against Mrps24 was inactive: 1.69; that for GGAAGAGUGACUUGUGCAATT against Slc28a2 was inactive: -0.162; that for CCUCCUCUCUGUUUUCUACTT against Olfr699 was inactive: 0.928.
As for GCCAAUACCAGCUUGACAUTT against LOC434448, the figure is inactive: 0.171; as for GGUUCGUCAUACCUCCUCATT against C77080, inactive: -2.52.
On to GGUGGGAACCUGUACUCUATT against Pld2, for which the z-score was inactive: 1.38.
With CCGGUUGCUAGGCUAAACATT against Wdr68, the z-score is inactive: -3.25.
As for GCUCCGUGUUGACUCAAAATT against Foxg1, the figure is inactive: -0.133; as for “CGCAGUAGCGAAGAAUUACTT against 2310045A20Rik”, inactive: 1.91; as for CGGGUAUCCAAAGUUGUUCTT against Hpxn, inactive: 1.54.
“GCUGGCUCUAAUACCCAUCTT against 2310010G13Rik”: the z-score is inactive: -0.633.
As for GGAACAACCUUAUACUACCTT against Rcl1, the figure is inactive: -1.67; as for GGACACACAUGGAAACUGGTT against Nr2f6, inactive: -0.934; as for “GGGAACAAAUUCAUUGUAUTT against 1810057B09Rik”, inactive: 0.215.
As for GGCCGUACUAGAUUUUCUUTT against Olfr695, the figure is inactive: 2.21; as for GCUCAAAUCUAAUAAGGACTT against Cdh3, inactive: -0.61; as for “GGUGGUUGAACAUAAGACUTT against 2810407K09Rik”, inactive: -0.892.
The value for GCUUUCUUGAGAUUACUCATT against Zcchc17 was inactive: -1.84.
Regarding GGCAAUAGCUACACCUUCATT against Csf1r, the z-score was inactive: 0.055.
As for GCAGGUGAAUCAGAUUGCUTT against LOC434448, the figure is inactive: -0.65.
Turning to CCACAAUGACUGGAUUAAGTT against Atp6v1c1, the z-score is inactive: 1.48.
On to GGACAAGAAGGAAAAGAAATT against Brd4, for which the z-score was inactive: -3.45.
As for “GGAGGGAGUCUCUGUUACUTT against 4933435A13Rik”, the z-score is inactive: -0.611.
With CGACAGAGGAAAACAUAAATT against St13, the z-score was inactive: -0.274.
With GGUGGAAGUCUUCAGACAGTT against Itgb4bp, the z-score was inactive: -1.65.
For the sequence “GGCCAAGAGUGUUUCCAAATT against 4930542N07Rik”, the z-score is inactive: -0.254.
As for GCCCAAGUCCAAAGUGUUGTT against MGC62475, the figure is inactive: -0.677.
The value for GGGCAUGGACAAAAUUCUCTT against Cct2 was inactive: 0.163; that for GCAAGAAGCCUGCCAAUAUTT against Etd was inactive: -1.71.
As for GCCGCUGUCAAUAAAUGACTT against Phb, the figure is inactive: 1.27; as for GGUAGAAAAGCUUCUGAAATT against Ap1g1, inactive: 0.717.
On to GGACAAGAACAAUUGCUAUTT against Gm397, for which the z-score was inactive: -0.106.
The value for “GCUGUUUUAGUAGAGGUAATT against 2310050B20Rik” was inactive: -1.09; that for GGGAGGAACUUUGUAUAAUTT against Plpi was inactive: 0.956; that for GGAGUGUAGUAAAUGUACCTT against Ppp1r13b was inactive: 0.708.
The value for GCCUCAGAAUACCAGCUCATT against Gnat1 was inactive: 1.13; that for GGGAGGAAAUUAAAUUUCATT against Hif1an was inactive: -1.57; that for “GCUCUAGAUGUCAACCUGATT against 1700108L22Rik” was inactive: 0.41.
In the case of GGCUUUCUAUCAAUUUGUGTT against Rnf12, the z-score is inactive: -0.518.
